Measured values taken from patent US20150104448A1 (TRUE NORTH THERAPEUTICS, published 2015).
Results are given in words; binding and its absence hold for the method and conditions named. Some results given as binding are weak or reduced against the parent protein; the word gives no strength.

By UniProt entry, the sequences of proteins in these tests, tags left out. Where a name states a change or a piece, a line headed by the entry shows the natural chain unless it says otherwise.
UniProt P00736: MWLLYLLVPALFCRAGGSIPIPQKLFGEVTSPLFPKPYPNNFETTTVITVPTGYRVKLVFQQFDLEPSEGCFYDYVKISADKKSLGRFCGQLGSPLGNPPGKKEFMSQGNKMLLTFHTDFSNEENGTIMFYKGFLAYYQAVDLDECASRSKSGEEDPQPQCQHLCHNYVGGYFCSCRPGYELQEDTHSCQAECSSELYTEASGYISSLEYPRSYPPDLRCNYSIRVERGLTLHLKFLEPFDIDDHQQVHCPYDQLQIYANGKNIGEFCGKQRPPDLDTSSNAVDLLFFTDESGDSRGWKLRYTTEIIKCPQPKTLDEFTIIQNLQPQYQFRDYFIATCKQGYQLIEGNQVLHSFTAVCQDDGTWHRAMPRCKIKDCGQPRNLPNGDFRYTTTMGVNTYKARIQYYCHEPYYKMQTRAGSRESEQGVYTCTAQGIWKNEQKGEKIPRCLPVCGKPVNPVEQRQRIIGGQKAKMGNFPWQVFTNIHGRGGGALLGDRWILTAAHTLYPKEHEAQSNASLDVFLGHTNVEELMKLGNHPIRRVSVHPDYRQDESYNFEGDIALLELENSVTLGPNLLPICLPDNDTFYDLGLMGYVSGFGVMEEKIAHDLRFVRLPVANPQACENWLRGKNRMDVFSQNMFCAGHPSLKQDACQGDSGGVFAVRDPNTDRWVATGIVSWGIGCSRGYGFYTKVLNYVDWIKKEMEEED
UniProt P02745: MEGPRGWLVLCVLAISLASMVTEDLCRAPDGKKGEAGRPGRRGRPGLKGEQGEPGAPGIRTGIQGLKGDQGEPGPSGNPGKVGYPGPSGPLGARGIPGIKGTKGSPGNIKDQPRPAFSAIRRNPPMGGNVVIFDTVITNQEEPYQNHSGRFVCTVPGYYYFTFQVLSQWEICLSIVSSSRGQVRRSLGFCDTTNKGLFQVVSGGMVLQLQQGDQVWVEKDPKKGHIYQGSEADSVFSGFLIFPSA
UniProt P02746: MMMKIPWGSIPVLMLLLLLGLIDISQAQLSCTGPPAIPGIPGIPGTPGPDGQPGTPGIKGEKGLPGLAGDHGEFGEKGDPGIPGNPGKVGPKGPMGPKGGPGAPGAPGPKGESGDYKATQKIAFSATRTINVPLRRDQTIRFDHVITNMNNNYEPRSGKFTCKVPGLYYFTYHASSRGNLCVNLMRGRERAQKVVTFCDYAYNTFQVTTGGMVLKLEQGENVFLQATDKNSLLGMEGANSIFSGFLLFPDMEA
UniProt P02747: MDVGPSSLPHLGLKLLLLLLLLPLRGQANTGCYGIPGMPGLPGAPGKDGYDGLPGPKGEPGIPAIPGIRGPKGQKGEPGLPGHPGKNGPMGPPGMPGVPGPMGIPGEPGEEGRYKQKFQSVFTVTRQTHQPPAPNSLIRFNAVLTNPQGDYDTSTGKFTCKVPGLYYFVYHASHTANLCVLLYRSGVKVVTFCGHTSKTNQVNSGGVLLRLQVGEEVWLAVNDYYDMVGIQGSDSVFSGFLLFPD

How the values were obtained:
[1] = target: T1, purified human activated C1s protein, two-chain form (Homo sapiens) (UniProt P09871); assay: western blot of activated human C1s run on SDS-PAGE under non-reducing conditions
T1 sequence: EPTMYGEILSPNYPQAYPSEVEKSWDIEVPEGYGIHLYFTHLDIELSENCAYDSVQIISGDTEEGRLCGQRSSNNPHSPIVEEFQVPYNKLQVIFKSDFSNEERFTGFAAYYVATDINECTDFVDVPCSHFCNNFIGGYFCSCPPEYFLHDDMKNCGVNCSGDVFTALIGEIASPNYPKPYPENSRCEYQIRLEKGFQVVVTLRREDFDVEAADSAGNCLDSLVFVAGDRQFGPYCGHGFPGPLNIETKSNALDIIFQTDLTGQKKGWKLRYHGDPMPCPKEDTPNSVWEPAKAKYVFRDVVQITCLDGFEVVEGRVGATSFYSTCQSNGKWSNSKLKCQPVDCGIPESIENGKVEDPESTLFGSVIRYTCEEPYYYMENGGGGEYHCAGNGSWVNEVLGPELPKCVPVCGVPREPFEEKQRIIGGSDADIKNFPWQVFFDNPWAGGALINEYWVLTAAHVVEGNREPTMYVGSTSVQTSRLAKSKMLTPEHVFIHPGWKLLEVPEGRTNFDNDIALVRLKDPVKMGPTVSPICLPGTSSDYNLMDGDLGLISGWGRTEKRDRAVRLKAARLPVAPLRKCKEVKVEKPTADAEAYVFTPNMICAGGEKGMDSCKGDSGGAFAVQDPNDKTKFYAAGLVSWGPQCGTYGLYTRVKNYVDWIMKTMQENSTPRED

[2] = target: T1, purified human activated C1s protein, two-chain form (Homo sapiens); assay: western blot of non-reduced activated human C1s
[3] = target: T2, purified human C1 complex (human) (UniProt P00736+P02745+P02746+P02747); assay: biotin-labeled TNT003 incubated with purified C1 complex, size exclusion on Superdex-200
[4] = target: T1, purified human activated C1s protein, two-chain form (Homo sapiens); assay: solution phase monoclonal antibody capture assay with biotin-labeled activated C1s; native biotin-labeled activated C1s in solution, hybridoma supernatant screen
[5] = target: T2, purified human C1 complex (human); assay: biotin-labeled TNT003 incubated with purified human C1 complex, Superdex-200 fractions analyzed by western blotting
[6] = target: T1, purified human activated C1s protein, two-chain form (Homo sapiens); assay: ELISA, target proteins immobilized on micro-titer plates
[7] = target: T1, purified human activated C1s protein, two-chain form (Homo sapiens); assay: ELISA with target proteins immobilized on micro-titer plates; ELISA, native protein immobilized on micro-titer plates
[8] = target: T3, full-length human C1s, recombinant (expressed in HEK293 cells) (human) (UniProt P09871); assay: western blot of non-reduced SDS-PAGE gels
T3 sequence: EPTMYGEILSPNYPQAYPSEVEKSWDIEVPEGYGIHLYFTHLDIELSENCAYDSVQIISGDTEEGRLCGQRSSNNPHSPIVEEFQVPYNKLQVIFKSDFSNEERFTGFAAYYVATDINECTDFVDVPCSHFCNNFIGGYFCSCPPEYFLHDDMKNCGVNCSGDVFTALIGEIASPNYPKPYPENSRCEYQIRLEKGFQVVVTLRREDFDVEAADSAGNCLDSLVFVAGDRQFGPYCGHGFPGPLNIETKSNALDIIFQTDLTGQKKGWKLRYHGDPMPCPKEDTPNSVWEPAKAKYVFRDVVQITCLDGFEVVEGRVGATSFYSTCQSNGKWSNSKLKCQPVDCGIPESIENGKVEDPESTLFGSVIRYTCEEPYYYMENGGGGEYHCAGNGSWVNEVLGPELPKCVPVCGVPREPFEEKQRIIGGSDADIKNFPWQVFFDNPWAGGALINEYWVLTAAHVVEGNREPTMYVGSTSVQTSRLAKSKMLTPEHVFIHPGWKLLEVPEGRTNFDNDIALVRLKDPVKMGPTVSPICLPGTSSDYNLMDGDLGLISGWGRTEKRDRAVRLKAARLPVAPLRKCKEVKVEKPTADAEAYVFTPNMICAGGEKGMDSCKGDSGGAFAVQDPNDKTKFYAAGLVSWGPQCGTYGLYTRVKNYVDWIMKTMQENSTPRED

[9] = target: T4, hC1s fragment 1.b (amino acids 272-422 of human C1s) (human) (UniProt P09871); assay: western blot of non-reduced SDS-PAGE gels
T4 sequence: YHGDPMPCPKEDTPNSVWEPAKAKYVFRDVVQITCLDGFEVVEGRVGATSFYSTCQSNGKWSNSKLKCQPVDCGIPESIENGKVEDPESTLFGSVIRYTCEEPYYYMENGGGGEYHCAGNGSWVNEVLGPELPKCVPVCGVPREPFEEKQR

- binding [1]: binds
- binding [2]: binds
- binding [3]: binds
- binding [4]: binds
- binding [5]: binds
- binding [6]: binds
- binding [7]: binds
- binding [8]: binds
- binding [9]: binds
B1: Anti-C1s monoclonal antibody IPN003 (antibody, V domains shown)
VH: EVMLVESGGALVKPGGSLKLSCAASGFTFSNYAMSWVRQIPEKRLEWVATISSGGSHTYYLDSVKGRFTISRDNARDTLYLQMSSLRSEDTALYYCARLFTGYAMDYWGQGTSVTVSS
VL: QIVLTQSPAIMSASLGERVTMTCTASSSVSSSYLHWYQQKPGSSPKLWIYSTSNLASGVPARFSGSGSGTFYSLTISSMEAEDDATYYCHQYYRLPPITFGAGTKLELK
notes: Mouse monoclonal antibody from an NZBW hybridoma; Biotin-labeled in some assays; also called IPN-M34; M34
